Laboratory results taken from PMC5243904.
These are yes or no findings as the source states them, for the method shown. Binding seen in cells or lysates may run through a third protein.

Amino acid sequences for entries named in this document (tags omitted).
UniProt P11881: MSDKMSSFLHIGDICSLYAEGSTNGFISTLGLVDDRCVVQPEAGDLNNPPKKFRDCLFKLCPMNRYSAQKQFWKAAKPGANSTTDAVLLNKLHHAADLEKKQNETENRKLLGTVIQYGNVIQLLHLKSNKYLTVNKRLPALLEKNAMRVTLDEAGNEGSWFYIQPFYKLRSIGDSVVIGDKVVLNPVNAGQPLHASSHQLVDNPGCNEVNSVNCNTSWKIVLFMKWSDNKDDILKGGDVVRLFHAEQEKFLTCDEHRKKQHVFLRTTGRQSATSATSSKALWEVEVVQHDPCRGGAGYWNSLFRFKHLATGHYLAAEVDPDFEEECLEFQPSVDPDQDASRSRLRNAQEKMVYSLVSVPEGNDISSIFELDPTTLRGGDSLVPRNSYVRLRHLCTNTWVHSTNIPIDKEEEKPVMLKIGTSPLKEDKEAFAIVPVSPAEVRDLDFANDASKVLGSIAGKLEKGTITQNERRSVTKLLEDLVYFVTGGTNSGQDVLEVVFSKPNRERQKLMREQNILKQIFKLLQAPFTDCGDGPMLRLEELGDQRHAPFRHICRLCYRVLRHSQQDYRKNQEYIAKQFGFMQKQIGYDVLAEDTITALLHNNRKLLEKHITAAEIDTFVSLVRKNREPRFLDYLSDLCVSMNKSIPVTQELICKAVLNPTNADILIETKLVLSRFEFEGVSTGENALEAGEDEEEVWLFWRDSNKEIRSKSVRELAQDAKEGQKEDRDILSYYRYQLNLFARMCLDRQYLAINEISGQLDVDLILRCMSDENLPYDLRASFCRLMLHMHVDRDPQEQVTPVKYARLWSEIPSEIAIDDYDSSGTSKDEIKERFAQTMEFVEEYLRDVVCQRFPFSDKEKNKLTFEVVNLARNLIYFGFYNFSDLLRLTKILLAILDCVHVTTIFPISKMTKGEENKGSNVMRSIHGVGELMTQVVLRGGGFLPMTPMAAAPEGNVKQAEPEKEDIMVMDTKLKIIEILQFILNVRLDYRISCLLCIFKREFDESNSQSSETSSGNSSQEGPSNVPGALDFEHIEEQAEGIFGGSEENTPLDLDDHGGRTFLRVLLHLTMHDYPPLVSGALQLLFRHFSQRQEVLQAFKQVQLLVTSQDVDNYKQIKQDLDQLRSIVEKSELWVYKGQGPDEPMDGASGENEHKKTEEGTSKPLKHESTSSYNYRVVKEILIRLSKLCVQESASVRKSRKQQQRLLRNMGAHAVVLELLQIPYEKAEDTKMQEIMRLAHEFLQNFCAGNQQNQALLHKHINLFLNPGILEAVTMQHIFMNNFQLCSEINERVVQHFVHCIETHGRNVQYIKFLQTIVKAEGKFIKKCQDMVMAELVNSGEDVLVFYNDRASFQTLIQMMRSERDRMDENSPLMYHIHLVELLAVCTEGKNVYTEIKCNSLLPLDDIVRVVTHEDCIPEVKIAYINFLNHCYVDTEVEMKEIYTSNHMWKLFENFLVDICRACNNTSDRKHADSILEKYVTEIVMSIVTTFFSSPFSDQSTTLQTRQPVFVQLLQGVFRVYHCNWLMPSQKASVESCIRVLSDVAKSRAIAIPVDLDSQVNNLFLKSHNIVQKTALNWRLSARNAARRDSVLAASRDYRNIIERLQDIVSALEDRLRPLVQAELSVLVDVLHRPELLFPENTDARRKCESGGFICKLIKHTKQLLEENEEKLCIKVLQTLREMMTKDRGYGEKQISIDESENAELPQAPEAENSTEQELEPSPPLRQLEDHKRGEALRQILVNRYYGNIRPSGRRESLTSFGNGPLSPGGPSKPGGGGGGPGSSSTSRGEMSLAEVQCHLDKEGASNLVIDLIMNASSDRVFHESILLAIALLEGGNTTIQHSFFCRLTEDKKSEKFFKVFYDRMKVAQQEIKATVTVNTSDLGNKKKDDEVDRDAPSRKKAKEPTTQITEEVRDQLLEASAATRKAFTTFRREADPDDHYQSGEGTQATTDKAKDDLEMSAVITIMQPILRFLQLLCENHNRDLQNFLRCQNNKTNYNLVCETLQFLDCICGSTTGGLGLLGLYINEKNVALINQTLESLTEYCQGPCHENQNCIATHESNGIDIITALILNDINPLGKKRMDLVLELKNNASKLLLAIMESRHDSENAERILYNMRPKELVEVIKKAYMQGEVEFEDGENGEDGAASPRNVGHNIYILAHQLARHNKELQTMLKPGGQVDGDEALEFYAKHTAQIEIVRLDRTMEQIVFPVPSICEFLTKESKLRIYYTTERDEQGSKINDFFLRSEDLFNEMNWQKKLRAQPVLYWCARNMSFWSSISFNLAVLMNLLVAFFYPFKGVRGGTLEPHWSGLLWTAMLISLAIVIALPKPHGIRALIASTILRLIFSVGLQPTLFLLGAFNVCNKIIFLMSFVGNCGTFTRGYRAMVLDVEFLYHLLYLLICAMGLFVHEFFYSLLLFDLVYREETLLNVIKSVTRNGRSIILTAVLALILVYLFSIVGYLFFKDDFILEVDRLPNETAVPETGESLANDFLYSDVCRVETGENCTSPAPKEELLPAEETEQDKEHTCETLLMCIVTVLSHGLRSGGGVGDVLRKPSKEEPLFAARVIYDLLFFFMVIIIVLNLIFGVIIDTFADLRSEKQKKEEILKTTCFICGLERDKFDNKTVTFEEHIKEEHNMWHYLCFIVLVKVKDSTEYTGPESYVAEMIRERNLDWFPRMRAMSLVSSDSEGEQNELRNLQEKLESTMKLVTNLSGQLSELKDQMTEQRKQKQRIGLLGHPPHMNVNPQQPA

Target: T1, wild-type ataxin-2 (ATXN2) (mouse (endogenous in mouse cerebellum)) (UniProt O70305)
T1 sequence: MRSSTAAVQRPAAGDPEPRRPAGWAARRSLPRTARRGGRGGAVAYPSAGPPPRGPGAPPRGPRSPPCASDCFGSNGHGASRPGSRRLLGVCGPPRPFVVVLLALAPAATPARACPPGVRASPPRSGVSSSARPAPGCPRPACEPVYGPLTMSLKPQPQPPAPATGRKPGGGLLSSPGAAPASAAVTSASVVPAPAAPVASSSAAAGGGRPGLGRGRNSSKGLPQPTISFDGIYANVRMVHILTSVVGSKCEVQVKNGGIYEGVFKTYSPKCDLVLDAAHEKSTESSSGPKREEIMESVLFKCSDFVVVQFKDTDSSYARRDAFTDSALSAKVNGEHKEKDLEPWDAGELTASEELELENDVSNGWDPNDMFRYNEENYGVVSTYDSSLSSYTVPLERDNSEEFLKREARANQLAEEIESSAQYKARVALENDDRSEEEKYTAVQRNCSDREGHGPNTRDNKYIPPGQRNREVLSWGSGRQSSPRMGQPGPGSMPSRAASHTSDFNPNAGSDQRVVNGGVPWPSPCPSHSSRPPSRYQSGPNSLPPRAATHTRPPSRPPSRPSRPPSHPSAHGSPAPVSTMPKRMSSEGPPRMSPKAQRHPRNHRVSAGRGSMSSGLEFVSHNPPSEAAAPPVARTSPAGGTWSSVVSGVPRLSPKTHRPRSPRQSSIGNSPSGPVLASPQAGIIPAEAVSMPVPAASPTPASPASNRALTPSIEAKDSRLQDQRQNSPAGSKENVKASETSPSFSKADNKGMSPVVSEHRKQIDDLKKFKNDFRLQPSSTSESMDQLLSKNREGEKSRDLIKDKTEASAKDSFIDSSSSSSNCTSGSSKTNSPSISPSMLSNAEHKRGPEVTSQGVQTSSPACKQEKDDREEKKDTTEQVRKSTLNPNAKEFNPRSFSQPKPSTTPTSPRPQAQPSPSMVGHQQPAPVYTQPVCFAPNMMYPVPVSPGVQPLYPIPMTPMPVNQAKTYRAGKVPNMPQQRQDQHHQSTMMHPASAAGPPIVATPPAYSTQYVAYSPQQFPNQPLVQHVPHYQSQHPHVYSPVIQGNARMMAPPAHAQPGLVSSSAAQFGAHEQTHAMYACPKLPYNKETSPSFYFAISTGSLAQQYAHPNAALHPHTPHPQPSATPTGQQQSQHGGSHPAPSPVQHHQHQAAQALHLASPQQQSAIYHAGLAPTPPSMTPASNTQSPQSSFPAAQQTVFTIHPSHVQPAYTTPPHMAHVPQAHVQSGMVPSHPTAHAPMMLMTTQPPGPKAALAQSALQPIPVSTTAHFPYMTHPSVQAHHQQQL
Experiment: co-IP; endogenous proteins in mouse cerebellum extract (250 ug, NP40 buffer: 20 mM Tris-HCl pH 8.0, 137 mM NaCl, 1 % glycerol, 0.1 % Igepal CA-630, 2 mM EDTA); pulling with anti-ATXN2 or anti-ITPR1 on Protein A agarose beads, 4 °C overnight; controls beads only, unspecific IgG, Atxn2 KO tissue; immunoblots detecting ITPR1

Inositol 1,4,5-triphosphate receptor 1 (ITPR1) (from UniProt P11881 1-2749)
binding: no binding
